Reference: patent US20030077699A1
No constants are given. Whether binding was seen depends on the method and setting. In cells and extracts the contact can be indirect. Some binding calls cover weakened binding; strength is not graded here. For some assays here: Where a sequence is shown, tags or fusion partners need not be part of it.

Chains of the proteins cited; added tags and fusions are not shown.
UniProt Q9ULZ3: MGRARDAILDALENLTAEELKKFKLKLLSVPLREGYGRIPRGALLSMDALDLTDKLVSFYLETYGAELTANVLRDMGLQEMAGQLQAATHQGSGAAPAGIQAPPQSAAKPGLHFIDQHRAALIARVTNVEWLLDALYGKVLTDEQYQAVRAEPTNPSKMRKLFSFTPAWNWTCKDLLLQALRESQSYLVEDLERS
UniProt O43353: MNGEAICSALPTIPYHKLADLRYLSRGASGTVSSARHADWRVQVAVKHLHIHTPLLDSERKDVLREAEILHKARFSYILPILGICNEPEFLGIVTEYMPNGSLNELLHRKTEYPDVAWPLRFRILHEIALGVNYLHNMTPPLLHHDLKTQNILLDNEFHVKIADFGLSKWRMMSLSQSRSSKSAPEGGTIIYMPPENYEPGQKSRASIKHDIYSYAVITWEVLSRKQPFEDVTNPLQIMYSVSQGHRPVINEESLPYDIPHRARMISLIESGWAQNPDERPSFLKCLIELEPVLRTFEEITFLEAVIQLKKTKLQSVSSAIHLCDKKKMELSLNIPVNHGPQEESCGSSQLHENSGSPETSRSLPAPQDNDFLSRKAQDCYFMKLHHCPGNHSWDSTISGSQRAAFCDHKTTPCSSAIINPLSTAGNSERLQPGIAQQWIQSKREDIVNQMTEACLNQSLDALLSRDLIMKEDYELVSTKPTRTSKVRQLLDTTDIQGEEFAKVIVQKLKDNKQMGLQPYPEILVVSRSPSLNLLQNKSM
UniProt P29466: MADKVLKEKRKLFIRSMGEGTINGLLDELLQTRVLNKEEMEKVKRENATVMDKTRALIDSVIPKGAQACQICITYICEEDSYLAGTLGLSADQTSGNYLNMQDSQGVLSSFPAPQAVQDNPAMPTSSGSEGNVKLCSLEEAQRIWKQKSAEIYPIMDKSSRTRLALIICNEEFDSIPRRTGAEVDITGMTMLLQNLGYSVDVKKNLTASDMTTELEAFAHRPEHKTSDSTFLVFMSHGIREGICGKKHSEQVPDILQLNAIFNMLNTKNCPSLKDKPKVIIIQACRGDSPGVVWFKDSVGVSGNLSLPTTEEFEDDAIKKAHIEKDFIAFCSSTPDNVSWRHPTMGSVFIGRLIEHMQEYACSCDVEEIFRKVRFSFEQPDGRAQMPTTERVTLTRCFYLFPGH

Experiments:
[1] = molecular target: HA-ASC (human) (UniProt Q9ULZ3); test: co-immunoprecipitation from HEK293T cells, immunoblot
[2] = molecular target: Flag-Cardiak (UniProt O43353); test: co-immunoprecipitation from HEK293T cells
[3] = molecular target: Myc-Caspase-1 (UniProt P29466); test: co-immunoprecipitation from HEK293T cells
[4] = molecular target: T1, Flag-Nod1 (UniProt Q9Y239); test: co-immunoprecipitation from HEK293T cells
T1 sequence (looked up): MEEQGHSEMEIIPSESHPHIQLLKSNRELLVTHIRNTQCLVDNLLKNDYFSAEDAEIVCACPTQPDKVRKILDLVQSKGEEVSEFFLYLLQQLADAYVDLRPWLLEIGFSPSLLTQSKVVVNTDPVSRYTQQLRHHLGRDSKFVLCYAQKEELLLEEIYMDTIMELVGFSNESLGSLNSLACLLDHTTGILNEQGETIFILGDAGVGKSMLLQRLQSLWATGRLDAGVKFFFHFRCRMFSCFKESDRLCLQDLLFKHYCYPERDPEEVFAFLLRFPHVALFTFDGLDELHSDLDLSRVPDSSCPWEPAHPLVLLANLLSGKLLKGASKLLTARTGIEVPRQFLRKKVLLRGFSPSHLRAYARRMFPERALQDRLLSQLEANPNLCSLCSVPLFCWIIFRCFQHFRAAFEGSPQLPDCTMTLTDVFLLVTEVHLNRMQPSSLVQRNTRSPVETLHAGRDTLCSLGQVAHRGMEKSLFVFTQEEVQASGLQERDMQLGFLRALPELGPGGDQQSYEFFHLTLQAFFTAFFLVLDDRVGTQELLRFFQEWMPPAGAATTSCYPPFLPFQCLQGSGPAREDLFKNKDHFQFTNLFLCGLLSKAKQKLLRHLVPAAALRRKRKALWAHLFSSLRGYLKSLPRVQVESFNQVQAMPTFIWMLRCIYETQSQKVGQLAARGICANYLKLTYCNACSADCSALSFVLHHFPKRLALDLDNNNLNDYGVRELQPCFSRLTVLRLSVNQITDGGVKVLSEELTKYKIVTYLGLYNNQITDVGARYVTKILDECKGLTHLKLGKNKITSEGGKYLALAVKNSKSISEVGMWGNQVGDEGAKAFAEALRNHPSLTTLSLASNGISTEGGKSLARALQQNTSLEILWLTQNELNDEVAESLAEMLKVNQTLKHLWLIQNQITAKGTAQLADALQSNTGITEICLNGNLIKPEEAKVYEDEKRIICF

[5] = molecular target: T2, Myc-Card10 (UniProt Q9BWT7); test: co-immunoprecipitation from HEK293T cells
T2 sequence (looked up): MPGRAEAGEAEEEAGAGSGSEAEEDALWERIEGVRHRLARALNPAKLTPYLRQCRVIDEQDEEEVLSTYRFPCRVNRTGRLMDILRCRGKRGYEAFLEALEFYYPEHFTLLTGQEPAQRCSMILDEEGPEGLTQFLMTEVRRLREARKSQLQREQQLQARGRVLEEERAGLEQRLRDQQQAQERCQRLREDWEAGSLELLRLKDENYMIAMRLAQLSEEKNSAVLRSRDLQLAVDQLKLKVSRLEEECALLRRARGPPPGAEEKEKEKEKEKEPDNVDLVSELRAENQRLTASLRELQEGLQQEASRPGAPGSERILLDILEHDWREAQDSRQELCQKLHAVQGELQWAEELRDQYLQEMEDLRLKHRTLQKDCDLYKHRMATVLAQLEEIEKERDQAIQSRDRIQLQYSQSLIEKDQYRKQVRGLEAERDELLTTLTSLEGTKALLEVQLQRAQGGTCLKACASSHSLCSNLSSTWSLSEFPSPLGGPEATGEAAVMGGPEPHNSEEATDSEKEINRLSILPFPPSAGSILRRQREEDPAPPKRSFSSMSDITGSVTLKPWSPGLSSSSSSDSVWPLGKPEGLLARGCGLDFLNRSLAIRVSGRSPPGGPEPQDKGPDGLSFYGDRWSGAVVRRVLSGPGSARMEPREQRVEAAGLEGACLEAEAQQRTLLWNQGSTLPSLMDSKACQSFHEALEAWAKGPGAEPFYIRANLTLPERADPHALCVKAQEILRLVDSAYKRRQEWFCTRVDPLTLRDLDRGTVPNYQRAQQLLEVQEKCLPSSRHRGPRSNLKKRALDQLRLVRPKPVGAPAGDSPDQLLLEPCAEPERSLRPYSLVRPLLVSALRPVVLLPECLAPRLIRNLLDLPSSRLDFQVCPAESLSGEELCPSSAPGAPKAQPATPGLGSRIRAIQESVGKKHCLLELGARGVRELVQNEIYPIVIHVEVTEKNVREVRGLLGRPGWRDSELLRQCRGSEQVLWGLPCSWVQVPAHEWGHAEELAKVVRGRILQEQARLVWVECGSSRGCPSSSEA

Myc-Caspase-1 (from UniProt P29466 1-404) (enzyme)
binding [1]: binds

Flag-Cardiak (from UniProt O43353 1-540) (enzyme)
binding [1]: binds

HA-ASC (from UniProt Q9ULZ3 1-195)
binding [2]: binds | binding [3]: binds | binding [4]: binds | binding [5]: binds

B1: Myc-Card10 (protein, UniProt Q9BWT7 1-1032, looked up, not shown: small tags and cut ends)
chain: MPGRAEAGEAEEEAGAGSGSEAEEDALWERIEGVRHRLARALNPAKLTPYLRQCRVIDEQDEEEVLSTYRFPCRVNRTGRLMDILRCRGKRGYEAFLEALEFYYPEHFTLLTGQEPAQRCSMILDEEGPEGLTQFLMTEVRRLREARKSQLQREQQLQARGRVLEEERAGLEQRLRDQQQAQERCQRLREDWEAGSLELLRLKDENYMIAMRLAQLSEEKNSAVLRSRDLQLAVDQLKLKVSRLEEECALLRRARGPPPGAEEKEKEKEKEKEPDNVDLVSELRAENQRLTASLRELQEGLQQEASRPGAPGSERILLDILEHDWREAQDSRQELCQKLHAVQGELQWAEELRDQYLQEMEDLRLKHRTLQKDCDLYKHRMATVLAQLEEIEKERDQAIQSRDRIQLQYSQSLIEKDQYRKQVRGLEAERDELLTTLTSLEGTKALLEVQLQRAQGGTCLKACASSHSLCSNLSSTWSLSEFPSPLGGPEATGEAAVMGGPEPHNSEEATDSEKEINRLSILPFPPSAGSILRRQREEDPAPPKRSFSSMSDITGSVTLKPWSPGLSSSSSSDSVWPLGKPEGLLARGCGLDFLNRSLAIRVSGRSPPGGPEPQDKGPDGLSFYGDRWSGAVVRRVLSGPGSARMEPREQRVEAAGLEGACLEAEAQQRTLLWNQGSTLPSLMDSKACQSFHEALEAWAKGPGAEPFYIRANLTLPERADPHALCVKAQEILRLVDSAYKRRQEWFCTRVDPLTLRDLDRGTVPNYQRAQQLLEVQEKCLPSSRHRGPRSNLKKRALDQLRLVRPKPVGAPAGDSPDQLLLEPCAEPERSLRPYSLVRPLLVSALRPVVLLPECLAPRLIRNLLDLPSSRLDFQVCPAESLSGEELCPSSAPGAPKAQPATPGLGSRIRAIQESVGKKHCLLELGARGVRELVQNEIYPIVIHVEVTEKNVREVRGLLGRPGWRDSELLRQCRGSEQVLWGLPCSWVQVPAHEWGHAEELAKVVRGRILQEQARLVWVECGSSRGCPSSSEA
binding [1]: binds

B2: Flag-Nod1 (protein, UniProt Q9Y239 1-953, looked up, not shown: small tags and cut ends)
chain: MEEQGHSEMEIIPSESHPHIQLLKSNRELLVTHIRNTQCLVDNLLKNDYFSAEDAEIVCACPTQPDKVRKILDLVQSKGEEVSEFFLYLLQQLADAYVDLRPWLLEIGFSPSLLTQSKVVVNTDPVSRYTQQLRHHLGRDSKFVLCYAQKEELLLEEIYMDTIMELVGFSNESLGSLNSLACLLDHTTGILNEQGETIFILGDAGVGKSMLLQRLQSLWATGRLDAGVKFFFHFRCRMFSCFKESDRLCLQDLLFKHYCYPERDPEEVFAFLLRFPHVALFTFDGLDELHSDLDLSRVPDSSCPWEPAHPLVLLANLLSGKLLKGASKLLTARTGIEVPRQFLRKKVLLRGFSPSHLRAYARRMFPERALQDRLLSQLEANPNLCSLCSVPLFCWIIFRCFQHFRAAFEGSPQLPDCTMTLTDVFLLVTEVHLNRMQPSSLVQRNTRSPVETLHAGRDTLCSLGQVAHRGMEKSLFVFTQEEVQASGLQERDMQLGFLRALPELGPGGDQQSYEFFHLTLQAFFTAFFLVLDDRVGTQELLRFFQEWMPPAGAATTSCYPPFLPFQCLQGSGPAREDLFKNKDHFQFTNLFLCGLLSKAKQKLLRHLVPAAALRRKRKALWAHLFSSLRGYLKSLPRVQVESFNQVQAMPTFIWMLRCIYETQSQKVGQLAARGICANYLKLTYCNACSADCSALSFVLHHFPKRLALDLDNNNLNDYGVRELQPCFSRLTVLRLSVNQITDGGVKVLSEELTKYKIVTYLGLYNNQITDVGARYVTKILDECKGLTHLKLGKNKITSEGGKYLALAVKNSKSISEVGMWGNQVGDEGAKAFAEALRNHPSLTTLSLASNGISTEGGKSLARALQQNTSLEILWLTQNELNDEVAESLAEMLKVNQTLKHLWLIQNQITAKGTAQLADALQSNTGITEICLNGNLIKPEEAKVYEDEKRIICF
binding [1]: binds
